Measurements as given in PMC5678585, “Screening a protein kinase inhibitor library against Plasmodium falciparum” (Malaria Journal, 2017).

System: Plasmodium falciparum 3D7
Assay: microbe, parasite or virus in culture
Conditions: read-out: Percentage inhibition of the growth of Plasmodium falciparum
Procedure: Growth inhibition was quantified using a fluorescence assay utilizing the binding of SYBR Green I to double stranded DNA, which emits a fluorescent signal at 528 nm after excitation at 485 nm. The SYBR Green assay system was adapted to maximize robustness and to align with available automation systems. The Prestwick Library then used as a pilot screen to validate the performance of the optimized assay. […] Single point screens were carried out, and the potency of compounds of interest was determined in duplicate on two independent occasions. A 96-well [^3H]-Hypoxanthine incorporation assay was also developed as a secondary assay in order to validate key compounds from each hit series in an orthogonal platform.
All data were processed using IDBS ActivityBase. […] The formula used to calculate Z’ is 1-3×(StDev_high+StDev_low)/ABS(Mean_high-Mean_low) .
Two independent assays were run.

Compound: CC(C)(C)CC(C)(C)c1ccc(OCCOCC[N+](C)(C)Cc2ccccc2)cc1 [Benzethonium chloride]
- inhibition at 4 µM: 102.5 ± 0.7%
